Measurements from “University of Dundee, Small-Polar-MMV Screening Library” (2021), ChEMBL document CHEMBL3988442.

Protein sequences, listed by entry. Tags and fused reporters are not part of them. Residues count along the entry.
UniProt Q8IDJ8, 1-583: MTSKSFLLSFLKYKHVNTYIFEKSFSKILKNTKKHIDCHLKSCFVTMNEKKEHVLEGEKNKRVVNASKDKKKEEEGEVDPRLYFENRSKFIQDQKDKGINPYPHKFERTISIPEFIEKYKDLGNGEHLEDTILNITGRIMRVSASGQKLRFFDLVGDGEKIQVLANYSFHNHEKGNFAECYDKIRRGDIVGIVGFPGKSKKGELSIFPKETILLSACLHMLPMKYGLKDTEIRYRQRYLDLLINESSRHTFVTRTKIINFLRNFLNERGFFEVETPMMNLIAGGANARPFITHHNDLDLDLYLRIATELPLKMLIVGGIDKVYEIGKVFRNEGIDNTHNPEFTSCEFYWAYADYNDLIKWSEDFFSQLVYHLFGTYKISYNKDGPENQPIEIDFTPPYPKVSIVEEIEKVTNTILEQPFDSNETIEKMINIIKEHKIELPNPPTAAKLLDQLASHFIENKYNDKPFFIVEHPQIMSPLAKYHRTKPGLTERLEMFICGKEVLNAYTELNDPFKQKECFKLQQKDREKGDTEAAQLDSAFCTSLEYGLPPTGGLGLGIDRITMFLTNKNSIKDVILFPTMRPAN
UniProt Q4DA54, 1-478: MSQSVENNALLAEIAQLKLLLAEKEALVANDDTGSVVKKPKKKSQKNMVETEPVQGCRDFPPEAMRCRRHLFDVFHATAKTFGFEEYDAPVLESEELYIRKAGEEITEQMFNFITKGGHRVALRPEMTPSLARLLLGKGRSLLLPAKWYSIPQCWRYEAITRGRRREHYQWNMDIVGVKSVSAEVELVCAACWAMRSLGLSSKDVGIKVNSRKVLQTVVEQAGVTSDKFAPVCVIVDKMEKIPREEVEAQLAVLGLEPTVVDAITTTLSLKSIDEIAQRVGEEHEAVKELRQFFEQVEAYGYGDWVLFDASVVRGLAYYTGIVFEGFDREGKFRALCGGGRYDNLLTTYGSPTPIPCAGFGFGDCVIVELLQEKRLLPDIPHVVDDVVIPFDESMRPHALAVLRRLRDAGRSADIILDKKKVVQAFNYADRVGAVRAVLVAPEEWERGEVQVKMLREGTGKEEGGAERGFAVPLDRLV
UniProt I6X8D2, whole entry: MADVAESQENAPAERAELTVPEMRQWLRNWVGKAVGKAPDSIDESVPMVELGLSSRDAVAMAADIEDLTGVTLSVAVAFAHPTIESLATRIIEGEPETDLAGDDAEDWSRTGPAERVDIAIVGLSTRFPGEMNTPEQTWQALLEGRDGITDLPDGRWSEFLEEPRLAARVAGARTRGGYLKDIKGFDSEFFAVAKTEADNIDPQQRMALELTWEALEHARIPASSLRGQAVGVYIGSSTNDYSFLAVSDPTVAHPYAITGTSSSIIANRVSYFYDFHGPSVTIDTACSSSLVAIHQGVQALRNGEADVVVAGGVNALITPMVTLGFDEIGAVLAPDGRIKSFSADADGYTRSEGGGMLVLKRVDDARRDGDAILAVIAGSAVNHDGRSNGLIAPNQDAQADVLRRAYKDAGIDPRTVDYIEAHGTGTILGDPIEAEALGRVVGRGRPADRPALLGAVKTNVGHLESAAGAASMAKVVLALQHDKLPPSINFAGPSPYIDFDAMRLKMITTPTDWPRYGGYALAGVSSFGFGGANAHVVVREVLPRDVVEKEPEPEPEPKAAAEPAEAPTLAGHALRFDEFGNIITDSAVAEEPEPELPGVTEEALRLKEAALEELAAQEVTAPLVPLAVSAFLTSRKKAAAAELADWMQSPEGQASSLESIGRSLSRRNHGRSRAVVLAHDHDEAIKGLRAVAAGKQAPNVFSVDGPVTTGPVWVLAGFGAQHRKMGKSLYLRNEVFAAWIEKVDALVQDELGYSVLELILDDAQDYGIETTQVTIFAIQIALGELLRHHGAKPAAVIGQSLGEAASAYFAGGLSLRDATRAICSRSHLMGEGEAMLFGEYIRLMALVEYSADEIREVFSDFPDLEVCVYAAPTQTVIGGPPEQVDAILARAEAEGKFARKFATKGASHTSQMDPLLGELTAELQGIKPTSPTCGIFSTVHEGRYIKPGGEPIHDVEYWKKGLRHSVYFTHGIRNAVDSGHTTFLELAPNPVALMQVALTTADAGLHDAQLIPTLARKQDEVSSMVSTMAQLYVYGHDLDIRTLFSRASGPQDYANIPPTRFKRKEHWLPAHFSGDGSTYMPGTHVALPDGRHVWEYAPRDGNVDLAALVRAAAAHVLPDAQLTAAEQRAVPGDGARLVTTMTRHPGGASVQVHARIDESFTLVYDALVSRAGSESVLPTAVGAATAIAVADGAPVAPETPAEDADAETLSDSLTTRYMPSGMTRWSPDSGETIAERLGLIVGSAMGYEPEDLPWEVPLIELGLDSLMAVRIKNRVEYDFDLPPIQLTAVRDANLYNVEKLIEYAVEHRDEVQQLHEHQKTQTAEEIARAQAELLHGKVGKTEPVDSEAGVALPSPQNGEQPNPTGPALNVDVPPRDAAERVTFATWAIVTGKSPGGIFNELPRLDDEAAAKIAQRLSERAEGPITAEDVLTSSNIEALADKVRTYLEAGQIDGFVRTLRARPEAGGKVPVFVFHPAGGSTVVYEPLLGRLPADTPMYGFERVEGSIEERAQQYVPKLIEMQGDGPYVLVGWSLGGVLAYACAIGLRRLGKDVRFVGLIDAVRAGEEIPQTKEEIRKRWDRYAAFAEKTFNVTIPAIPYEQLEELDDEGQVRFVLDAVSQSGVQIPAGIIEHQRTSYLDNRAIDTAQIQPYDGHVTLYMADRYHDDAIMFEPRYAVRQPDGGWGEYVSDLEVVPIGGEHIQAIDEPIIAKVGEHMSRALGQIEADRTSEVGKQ

A: 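Lysine-tRNA ligase, Plasmodium falciparum 3D7 (UniProt Q8IDJ8). Enzyme assay of the cytosolic lysyl-tRNA synthetase in 384-well plates, read by luminescence. Compounds at 30 µM. Direction is inferred from only a few compounds that gave an IC50; most scored high, so higher reads as stronger inhibition. Of about 69,000 compounds tested this way, about 49 (0.071%) reached 50% or more in at least one test.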
B: 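Enzyme assay of histidyl-tRNA synthetase; the read-out is not stated. Target: Histidine-tRNA ligase, Trypanosoma cruzi CL Brener (UniProt Q4DA54). Tested at 30 µM. Direction is inferred from retests: higher values go with stronger inhibition. Of about 69,000 compounds tested this way, about 31 (0.045%) reached 50% or more in at least one test.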
C: 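Cell assay of Leishmania donovani living inside macrophages; the read-out is not stated. Concentration: 30 µM. Direction is inferred from retests: higher values go with stronger inhibition. Of about 69,000 compounds tested this way, about 1,000 (1.5%) reached 50% or more in at least one test.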
D: 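Polyketide synthase Pks13, Mycobacterium tuberculosis (UniProt I6X8D2). Enzyme assay of the thioesterase domain of polyketide synthase 13; the read-out is not stated. Concentration: 30 µM. The record gives no direction; the compounds picked for IC50 retests had high values, so higher reads as stronger inhibition. Of about 67,000 compounds tested this way, about 300 (0.46%) reached 50% or more in at least one test.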

Each number is a percent effect as filed.
The controls that fix the scale are not given in the record; negative values are as filed.
This is an unselected part of the compounds tested.
Two or more numbers in one place are separate tests of the same structure; such repeats can differ widely.
A dash means the value is not listed here; it may have been measured.

SMILES,A,B,C,D
CCc1csc(C2CCCN(C(=O)c3cc(C4CC4)[nH]n3)C2)n1 (stereo not drawn),0.3166%,2.874%,3.884%,-3.251%
CCN(CC)Cc1nc2c(o1)CN(S(=O)(=O)c1cccs1)C2.O=C(O)C(F)(F)F,-,-,10.35%,-
CN1CCCC(c2cccc(CCC(=O)NCc3ccccn3)n2)C1 (stereo not drawn),2.699%,7.447%,-15.04%,-16.4%
CCNc1nc(-c2cccnc2)c(-c2ccnc(NS(C)(=O)=O)n2)s1,3.32%,13.56%,-5.981% and 8.455%,17.48%
Cc1ccc(C(=O)N2CCCCC2CNC(N)=O)s1 (stereo not drawn),5.747%,5.82%,9.512%,1.025%
COC1CCCN(CCCc2cn[nH]c2)C1 (stereo not drawn),3.848%,5.759%,29.55%,-28.05%
COc1ccc(C(C(=O)O)N(C)CCN2CCOCC2)c(C)c1 (stereo not drawn),2.332%,1.136%,21.34%,-29.46%
COC1CCN(C(=O)C2CC(=O)N(c3ccccc3Br)C2)CC1 (stereo not drawn),2.713%,3.061%,34%,1.564%
O=C(NC1CC1)N1Cc2[nH]nc(COc3cccnc3)c2C1,9.465%,1.075%,-,-32.74%
c1cncc(-c2ccnn2CN2CCC3(CC2)OCCO3)c1,0.05652%,8.021%,24.88%,-14.16%
Cc1ccc(S(=O)(=O)NC(=O)c2cccc3c2OCCO3)c(C)c1,4.3%,-0.8264%,14.96%,-10.23%
O=C(O)C(F)(F)F.O=c1cc(CNS(=O)(=O)C2CC2)nc2n1CCCN(CC1CC1)C2,-,-,10.92%,-
Cc1cccc(CN2CCS(=O)(=O)[C@@H]3CCN(C(=O)C4CC4)CC[C@@H]32)n1,-4.416%,7.527%,-,3.376%
Cc1cc(C)cc(C2(C(=O)N3CCCC(n4cncn4)C3)CC2)c1 (stereo not drawn),1.071%,1.149%,-5.909%,-10.63%
CCn1nc(C)c(S(=O)(=O)Nc2cccc(C(=O)O)c2C)c1C,1.343%,3.093%,-0.2857%,2.339%
O=C(c1cnccn1)N1CC[C@H]2[C@H]1CCN2S(=O)(=O)C1CC1,-0.1314%,0%,-,-25.62%
CCN1CCC2(COCc3cnc(NCC4CC4)nc32)C1 (stereo not drawn),0.8575%,-3.306%,-,-19.11%
Cc1ccccc1-n1ncc(C(C)N)c1C (stereo not drawn),3.116%,0.431%,9.916%,-36.44%
CN(C)c1cc(CC(NC(=O)C2CC2)c2ccccc2)nc(C2CC2)n1 (stereo not drawn),-1.655%,14.57%,-4.168%,-73.49%
O=C([C@@H]1CCO[C@@H]2CCN(CCc3ccccc3)C[C@@H]21)N1CCCC1,-1.739%,5%,-,-37.25%
CCCOC(=O)N1CCn2nc(-c3nc4ccccc4n3C)cc2C1,-7.694%,7.296%,31.73%,2.07%
CC(C)(C)n1cc(C(=O)N2CCN(Cc3cccnc3)CC2)cn1,1.746%,7.101%,8.548%,-2.55%
O=C(NCCCOC1CCOC1)NC(C1CC1)C1CC1 (stereo not drawn),-0.1808%,6.494%,-16.86%,8.866%
CN(CC(=O)N1CC(C)(C)[C@@](C)(O)C1)Cc1ccncc1,2.343%,5.747%,0.3759%,-19.56%
CCc1ccccc1CN1CCC(N2CCCC2=O)CC1,3.24%,6.931%,41.76%,-7.495%
CCN(CC)C(=O)CCCNC(=O)Cc1nc(-c2ccco2)oc1C,1.396%,5.747%,29.64%,10.86%
CCC(CNC(=O)c1cccc(S(=O)(=O)NC)c1)N1CCCC1 (stereo not drawn),1.626%,5.82%,-7.529%,-20.5%
CC(=O)Nc1nc(C(=O)N2CCCC(n3nc(C)cc3C)C2)cs1 (stereo not drawn),-1.125%,2.273%,-7.826%,-4.777%
CC(=O)Nn1c(C)cc(CN2CCC(C(=O)N3CCCC3)CC2)c1C,-0.3438%,0.578%,17.35%,-23.35%